In publication PMC9371919 one finds binding data, which are given here for one substance.

Protein sequences, listed by entry. Tags and fused reporters are not part of them. Lines headed by an entry give the natural chain unless they say otherwise; changes in a name come on top.
UniProt O52760: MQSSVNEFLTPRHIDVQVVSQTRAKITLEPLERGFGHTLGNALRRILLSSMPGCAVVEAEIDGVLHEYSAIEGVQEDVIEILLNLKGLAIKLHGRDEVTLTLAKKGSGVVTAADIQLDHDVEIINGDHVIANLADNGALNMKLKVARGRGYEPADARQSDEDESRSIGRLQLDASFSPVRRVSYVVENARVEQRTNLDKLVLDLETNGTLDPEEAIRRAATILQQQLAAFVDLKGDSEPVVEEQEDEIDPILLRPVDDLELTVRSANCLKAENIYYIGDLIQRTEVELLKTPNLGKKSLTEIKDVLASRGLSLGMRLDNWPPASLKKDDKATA
UniProt Q51561: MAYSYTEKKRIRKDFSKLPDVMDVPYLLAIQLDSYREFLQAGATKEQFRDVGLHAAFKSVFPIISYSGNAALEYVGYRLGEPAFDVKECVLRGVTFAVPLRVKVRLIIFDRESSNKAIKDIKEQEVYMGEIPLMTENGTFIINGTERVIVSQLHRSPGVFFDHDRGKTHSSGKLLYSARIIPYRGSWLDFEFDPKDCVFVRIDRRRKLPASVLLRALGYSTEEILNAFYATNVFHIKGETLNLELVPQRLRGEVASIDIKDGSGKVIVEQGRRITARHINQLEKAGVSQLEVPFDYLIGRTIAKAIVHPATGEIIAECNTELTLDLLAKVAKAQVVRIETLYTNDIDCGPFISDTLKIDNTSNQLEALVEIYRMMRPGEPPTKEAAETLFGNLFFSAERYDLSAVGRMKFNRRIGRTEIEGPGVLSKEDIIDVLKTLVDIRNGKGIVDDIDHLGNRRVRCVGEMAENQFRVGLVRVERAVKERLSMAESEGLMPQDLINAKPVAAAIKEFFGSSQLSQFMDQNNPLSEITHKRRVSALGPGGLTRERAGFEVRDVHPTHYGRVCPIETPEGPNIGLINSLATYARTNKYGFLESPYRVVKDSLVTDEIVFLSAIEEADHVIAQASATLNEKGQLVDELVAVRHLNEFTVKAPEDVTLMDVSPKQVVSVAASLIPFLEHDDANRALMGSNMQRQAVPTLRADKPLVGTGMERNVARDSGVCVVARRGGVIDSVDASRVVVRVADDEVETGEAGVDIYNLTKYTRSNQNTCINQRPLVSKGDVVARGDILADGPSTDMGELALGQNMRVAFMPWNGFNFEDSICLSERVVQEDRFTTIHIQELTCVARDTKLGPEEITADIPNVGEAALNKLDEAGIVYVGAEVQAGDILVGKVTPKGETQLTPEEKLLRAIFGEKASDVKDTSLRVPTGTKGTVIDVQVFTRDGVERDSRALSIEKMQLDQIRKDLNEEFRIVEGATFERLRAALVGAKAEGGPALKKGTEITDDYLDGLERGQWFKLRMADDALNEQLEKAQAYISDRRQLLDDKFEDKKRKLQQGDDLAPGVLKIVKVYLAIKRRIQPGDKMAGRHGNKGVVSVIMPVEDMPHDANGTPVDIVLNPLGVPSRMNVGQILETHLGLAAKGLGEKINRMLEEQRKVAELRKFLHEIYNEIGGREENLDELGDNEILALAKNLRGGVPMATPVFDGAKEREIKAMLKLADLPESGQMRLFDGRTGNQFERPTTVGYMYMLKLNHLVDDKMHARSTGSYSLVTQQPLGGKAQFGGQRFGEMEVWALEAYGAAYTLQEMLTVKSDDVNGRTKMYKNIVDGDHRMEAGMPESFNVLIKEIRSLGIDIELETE
UniProt Q9HWC9: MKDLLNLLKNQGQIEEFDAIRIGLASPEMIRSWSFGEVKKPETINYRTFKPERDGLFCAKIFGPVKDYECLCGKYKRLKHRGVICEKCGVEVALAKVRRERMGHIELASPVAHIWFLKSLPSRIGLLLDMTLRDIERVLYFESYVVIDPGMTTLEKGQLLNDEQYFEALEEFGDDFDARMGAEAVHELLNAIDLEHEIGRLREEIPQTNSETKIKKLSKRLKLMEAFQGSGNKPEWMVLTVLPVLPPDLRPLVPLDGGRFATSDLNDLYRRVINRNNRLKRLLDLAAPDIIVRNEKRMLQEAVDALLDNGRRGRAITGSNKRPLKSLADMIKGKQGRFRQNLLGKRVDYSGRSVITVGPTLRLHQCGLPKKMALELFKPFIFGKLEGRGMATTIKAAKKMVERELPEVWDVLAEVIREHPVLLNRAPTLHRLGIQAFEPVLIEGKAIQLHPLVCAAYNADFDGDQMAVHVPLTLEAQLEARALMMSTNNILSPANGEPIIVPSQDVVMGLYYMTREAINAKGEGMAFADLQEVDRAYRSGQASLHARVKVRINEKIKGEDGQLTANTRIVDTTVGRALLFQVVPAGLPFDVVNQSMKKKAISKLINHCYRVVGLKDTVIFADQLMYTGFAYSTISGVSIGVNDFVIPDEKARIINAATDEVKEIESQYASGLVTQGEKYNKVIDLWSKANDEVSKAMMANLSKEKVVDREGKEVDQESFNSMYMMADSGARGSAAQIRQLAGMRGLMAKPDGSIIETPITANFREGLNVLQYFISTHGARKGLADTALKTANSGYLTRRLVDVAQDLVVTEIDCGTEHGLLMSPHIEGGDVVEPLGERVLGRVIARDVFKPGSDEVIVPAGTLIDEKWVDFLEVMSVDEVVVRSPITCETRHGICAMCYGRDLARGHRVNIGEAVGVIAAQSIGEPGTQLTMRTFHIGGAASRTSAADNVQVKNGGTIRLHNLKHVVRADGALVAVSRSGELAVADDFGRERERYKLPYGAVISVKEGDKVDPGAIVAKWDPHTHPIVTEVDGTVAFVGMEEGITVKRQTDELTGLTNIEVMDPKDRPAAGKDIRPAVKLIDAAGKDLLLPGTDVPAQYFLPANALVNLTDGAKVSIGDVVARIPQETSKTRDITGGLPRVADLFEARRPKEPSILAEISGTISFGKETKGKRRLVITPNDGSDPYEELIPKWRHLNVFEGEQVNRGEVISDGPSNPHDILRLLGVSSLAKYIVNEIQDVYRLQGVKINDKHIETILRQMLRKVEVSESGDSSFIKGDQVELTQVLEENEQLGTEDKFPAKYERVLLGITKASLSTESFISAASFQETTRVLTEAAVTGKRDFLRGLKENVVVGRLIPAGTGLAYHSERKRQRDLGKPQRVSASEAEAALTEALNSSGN
UniProt B7V5M8: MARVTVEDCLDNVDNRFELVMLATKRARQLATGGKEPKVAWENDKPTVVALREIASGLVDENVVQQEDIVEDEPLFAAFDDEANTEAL
UniProt P26480: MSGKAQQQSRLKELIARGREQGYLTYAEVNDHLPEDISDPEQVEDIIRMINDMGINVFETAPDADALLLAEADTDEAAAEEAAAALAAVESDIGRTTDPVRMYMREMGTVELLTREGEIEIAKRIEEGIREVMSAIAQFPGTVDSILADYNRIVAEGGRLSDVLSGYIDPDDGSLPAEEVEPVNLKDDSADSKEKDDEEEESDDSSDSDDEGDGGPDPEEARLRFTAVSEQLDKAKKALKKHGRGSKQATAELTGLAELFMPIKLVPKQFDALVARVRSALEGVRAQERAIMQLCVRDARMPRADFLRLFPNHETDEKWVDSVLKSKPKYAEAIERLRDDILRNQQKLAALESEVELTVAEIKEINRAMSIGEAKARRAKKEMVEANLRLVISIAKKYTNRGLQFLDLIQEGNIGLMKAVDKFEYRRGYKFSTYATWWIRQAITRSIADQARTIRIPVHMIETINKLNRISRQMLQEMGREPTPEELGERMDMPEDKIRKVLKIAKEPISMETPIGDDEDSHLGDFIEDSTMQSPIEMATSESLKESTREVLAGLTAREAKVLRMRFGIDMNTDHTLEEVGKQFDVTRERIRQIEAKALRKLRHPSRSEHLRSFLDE

These are yes or no findings as the source states them, for the method shown. Some binding calls cover weakened binding; strength is not graded here.

The target in this assay is Pae RNAP core enzyme (Pseudomonas aeruginosa) (UniProt O52760+Q51561+Q9HWC9+B7V5M8). As to the kind of experiment: SEC; Pae RNAP core enzyme and Pae σ70 incubated 1:3 for 1 h at 4°C, then HiLoad 16/600 Superdex 200 in 10 mM HEPES pH 7.5, 50 mM KCl; both purified. A general note: Size exclusion chromatography separates by hydrodynamic size, large species first.

Consider Pae σ^70 (from UniProt P26480 1-617), for which the binding result is listed as “binds”.
